Literature values, collected in US10132799B2, “Screening of conjugated antibodies” (Innate Pharma, priority 2012, dated 2018).

Conditions: general statement on poorly soluble hydrophobic drugs

For `CC(=O)O[C@H]1C(=O)[C@@]2(C)[C@H]([C@H](OC(=O)c3ccccc3)[C@]3(O)C[C@H](OC(=O)[C@H](O)[C@@H](NC(=O)c4ccccc4)c4ccccc4)C(C)=C1C3(C)C)[C@]1(OC(C)=O)CO[C@@H]1C[C@@H]2O` [PTX, paclitaxel], the solubility in water is listed as “less than 1 μg/ml”.
In the case of `CC[C@@]1(O)C(=O)OCc2c1cc1n(c2=O)Cc2cc3ccccc3nc2-1` [CPT, camptothecin], the solubility in water is listed as “about 2.5 μg/ml”.
